Measurements reported in patent publication US10238713B2, “Cyclic tetrapeptides and therapeutic applications thereof” (LODZ UNIVERSITY OF TECHNOLOGY, priority 2010, dated 2019).
Like-named read-outs stand apart in the source and are kept apart here. Part of at least one peptide drawing is inferred or uncertain, most often the ends. Non-standard residues stand in square brackets, D forms with d. Residues, ends and D or L forms follow the SMILES beside them. *: point of attachment. β3hF = N[C@H](CC(=O)O)Cc1ccccc1; tBu = CC(C)(C)*

Assays:
[1] = tested on: PHA-induced proliferation of human peripheral blood mononuclear cells (PBMC); assay: Proliferative response of PBMC to PHA (MTT); type: cell-based; conditions: four-day incubation
[2] = tested on: LPS-induced TNF-α production; type: cell-based; conditions: for TNF-α: Table 2A; for TNF alpha: Table 2B
Description: Human whole blood was diluted 10-fold with RPMI-1640 medium and distributed to 24-well culture plates in 1 ml aliquots. LPS was added to the culture at a concentration of 1 μg/ml. The studied peptides were used at concentrations of 1, 10 and 100 μg/ml. After overnight incubation, the supernatants were harvested and frozen at −20° C. until cytokine determination. TNF-α activity was determined using a bioassay. Briefly, WEHI 164.13 cells (ATCC CRL 1751) were seeded at a concentration of 2×10^4 cells/well in quadriplicate. Increasing dilutions of the assayed supernatant were mixed with the target cells in the presence of actinomycin D (1 μg/ml). After 20 h of incubation, MTT was added into the wells, and the cultures were incubated for an additional 4 h. […] The detection limit of the assay was about 2.5 pg/ml. One unit of TNF-α activity was defined as an inverse of supernatant dilution where 50% cell death took place. The cultures labeled “Control (−)” contained no LPS. The cultures labeled “Control (LPS)” contained LPS and none of the studied compounds. Statistical analysis was not applied since the data derive from single cultures (wells).

[3] = compound 100 μg/ml (DMSO only: 854)

| SMILES | PHA-induced PBMC proliferation, P vs DMSO at appropriate dilution ([1]; 1 μg/ml, FIGS. 9A-9B) | PHA-induced PBMC proliferation, P vs DMSO at appropriate dilution ([1]; 10 μg/ml, FIGS. 9A-9F) | PHA-induced PBMC proliferation, P vs DMSO at appropriate dilution ([1]; 100 μg/ml, FIGS. 9A-9F) | TNF-α ([2]; compound 1 μg/ml, LPS 1 μg/ml, overnight) | TNF-α ([2]; compound 10 μg/ml) | TNF-α ([2]; compound 100 μg/ml (DMSO only: 196)) | TNF alpha ([2]; compound 1 μg/ml) | TNF alpha ([2]; compound 10 μg/ml) | TNF alpha [2, 3] |
| --- | --- | --- | --- | --- | --- | --- | --- | --- | --- |
| O=C1C[C@H](Cc2ccccc2)NC(=O)[C@H]2CCCN2C(=O)[C@H]2CCCN2C(=O)[C@H](Cc2ccccc2)N1 [I-K] (cyclo([dP][dP][β3hF]F)) | 0.1445 | 0.8647 | 1.0000 | 6453 pg/mL | 7284 pg/mL | 163 pg/mL |  |  |  |
| O=C1C[C@H](Cc2ccccc2)NC(=O)[C@@H]2CCCN2C(=O)[C@@H]2CCCN2C(=O)[C@H](Cc2c[nH]c3ccccc23)N1 [I-L] (cyclo(PP[β3hF]W)) | 0.9999 | 1.0000 | 1.0000 |  |  |  | 4039 pg/mL | 3363 pg/mL | 269 pg/mL |
| CC(C)(C)Oc1ccc(C[C@@H]2NC(=O)C[C@H](Cc3ccccc3)NC(=O)[C@@H]3CCCN3C(=O)[C@@H]3CCCN3C2=O)cc1 [I-N] (cyclo(PP[β3hF]Y(tBu))) | 1.0000 | 0.2763 | 0.9933 |  |  |  | 3792 pg/mL | 3739 pg/mL | 282 pg/mL |
